According to the supplement of paper PMC6078165:

Key:
[1] = system: Hs578T; assay: relative JC-1 red fluorescence (viability) vs pre-drug, monoculture (fraction); higher = more viable cancer cells; details: coculture fibroblast: none (monoculture)
Experimental: (§1)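 JC-1 labelled TNBC cells grown in monoculture (density kept equal with unlabelled cancer cells) in 384-well plates in FluoroBrite medium, treated with one of 42 anticancer drugs at 0.1, 1, 10 or 100 uM. JC-1 red fluorescence (mitochondrial integrity, surrogate of apoptotic death) was read by plate reader every 8 h for 72 h. Values are normalised to each well's pre-drug value, with background from alamethicin. The stock of one drug was tenfold lower, so its dose labels may be too high. Monoculture values are repeated alongside each fibroblast plate and are averaged here.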

[2] = system: MDAMB468; assay: as above; details: coculture fibroblast: none (monoculture)
Experimental: as §1

CC(=O)c1c(C)c2cnc(Nc3ccc(N4CCNCC4)cn3)nc2n(C2CCCC2)c1=O [Palbociclib]
relative JC-1 red fluorescence
Details | 8 h | 16 h | 24 h | 32 h | 40 h | 48 h | 56 h | 64 h | 72 h
[1], 0.1 µM | 0.8333 | 0.7128 | 0.62 | 0.554 | 0.505 | 0.474 | 0.449 | 0.432 | 0.419
[1], 1 µM | 0.906 | 0.831 | 0.7779 | 0.72068 | 0.676 | 0.66 | 0.64 | 0.638 | 0.623
[1], 10 µM | 0.97 | 0.935 | 0.864 | 0.848 | 0.837 | 0.753 | 0.72 | 0.704 | 0.661
[1], 100 µM | 0.568 | 0.34932 | 0.3563 | 0.272 | 0.238 | 0.221 | 0.202 | 0.192 | 0.173
[2], 0.1 µM | 0.8906 | 0.8497 | 0.79 | 0.696 | 0.637 | 0.607 | 0.581 | 0.557 | 0.539
[2], 1 µM | 0.9065 | 0.853 | 0.814 | 0.748 | 0.7 | 0.675 | 0.646 | 0.624 | 0.613
[2], 10 µM | 0.9671 | 0.9776 | 0.911 | 0.81 | 0.895 | 0.825 | 0.702 | 0.619 | 0.552
[2], 100 µM | 0.617 | 0.349 | 0.278 | 0.23 | 0.2 | 0.187 | 0.164 | 0.15 | 0.137

Values are relative to the signal before dosing, not to a vehicle control; the signal also falls without drug.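 Cells used are triple-negative breast cancer lines, either basal-like or mesenchymal-like, grown in the absence of fibroblasts. Lower red signal means mitochondrial integrity is lost, a surrogate for apoptosis.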
